Here are results for two molecules from doi:10.1101/2024.07.08.601072.

Assay [1] addresses Tom1p HECT domain (2850-3268) (S. cerevisiae) (UniProt Q03280). The assay can be described thus: SEC. Background: Size exclusion chromatography separates by hydrodynamic size, large species first.
Assay [2] has as its target Tom1p (endogenous) (S. cerevisiae (endogenous in yeast)) (UniProt Q03280). Briefly: far-Western, overlay or dot blot.

These are yes or no findings as the source states them, for the method shown. Some entries that bind do so weakly or less than the wild type. For some assays here: Where a sequence is shown, tags or fusion partners need not be part of it.

B1: Tom1p HECT domain (2850-3268) (domain or fragment, UniProt Q03280 2850-3268)
chain: NLFFPFTDAHKKLLNQMIRSNPKLMSGPFALLVKNPKVLDFDNKRYFFNAKLKSDNQERPKLPITVRREQVFLDSYRALFFKTNDEIKNSKLEITFKGESGVDAGGVTREWYQVLSRQMFNPDYALFLPVPSDKTTFHPNRTSGINPEHLSFFKFIGMIIGKAIRDQCFLDCHFSREVYKNILGRPVSLKDMESLDPDYYKSLVWILENDITDIIEETFSVETDDYGEHKVINLIEGGKDIIVTEANKQDYVKKVVEYKLQTSVKEQMDNFLVGFYALISKDLITIFDEQELELLISGLPDIDVDDWKNNTTYVNYTATCKEVSYFWRAVRSFDAEERAKLLQFVTGTSKVPLNGFKELSGVNGVCKFSIHRDFGSSERLPSSHTCFNQLNLPPYESYETLRGSLLLAINEGHEGFGLA
Consider B1, for which the binding entry in assay [1] is on record as “no binding”.

B2: GST-Spt6p^tSH2 (WT) (domain or fragment, UniProt P23615 1223-1451)
chain: SIWDLKQELEDAEEERKLMMAEARAKRTHRVINHPYYFPFNGRQAEDYLRSKERGEFVIRQSSRGDDHLVITWKLDKDLFQHIDIQELEKENPLALGKVLIVDNQKYNDLDQIIVEYLQNKVRLLNEMTSSEKFKSGTKKDVVKFIEDYSRVNPNKSVYYFSLNHDNPGWFYLMFKINANSKLYTWNVKLTNTGYFLVNYNYPSVIQLCNGFKTLLKSNSSKNRMNNYR
As to B2, in assay [2], the binding result is given as “binds”.
